The experiment addresses T1, Cyclin-dependent kinase 4 (rat (endogenous in primary ADSCs)) (UniProt P35426).
T1 sequence: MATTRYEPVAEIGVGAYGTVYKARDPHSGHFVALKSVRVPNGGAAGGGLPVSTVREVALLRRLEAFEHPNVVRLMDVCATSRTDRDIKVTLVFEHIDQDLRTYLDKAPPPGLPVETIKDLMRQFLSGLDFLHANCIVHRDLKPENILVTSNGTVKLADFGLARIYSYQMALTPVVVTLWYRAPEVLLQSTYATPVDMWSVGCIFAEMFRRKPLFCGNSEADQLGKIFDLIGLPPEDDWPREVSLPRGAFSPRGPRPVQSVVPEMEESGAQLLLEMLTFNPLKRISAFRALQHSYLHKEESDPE
Kind of experiment: co-IP; anti-CDK4 antibody (Abcam, ab226474) with a commercial Co-IP kit (Thermo, 26149) on ADSC lysates, control or PA-treated (500 umol/l sodium palmitate, 12 h); precipitate read by WB.

Sequences of proteins named here, by UniProt entry; tags and fusion partners are left off.
UniProt F1LP64: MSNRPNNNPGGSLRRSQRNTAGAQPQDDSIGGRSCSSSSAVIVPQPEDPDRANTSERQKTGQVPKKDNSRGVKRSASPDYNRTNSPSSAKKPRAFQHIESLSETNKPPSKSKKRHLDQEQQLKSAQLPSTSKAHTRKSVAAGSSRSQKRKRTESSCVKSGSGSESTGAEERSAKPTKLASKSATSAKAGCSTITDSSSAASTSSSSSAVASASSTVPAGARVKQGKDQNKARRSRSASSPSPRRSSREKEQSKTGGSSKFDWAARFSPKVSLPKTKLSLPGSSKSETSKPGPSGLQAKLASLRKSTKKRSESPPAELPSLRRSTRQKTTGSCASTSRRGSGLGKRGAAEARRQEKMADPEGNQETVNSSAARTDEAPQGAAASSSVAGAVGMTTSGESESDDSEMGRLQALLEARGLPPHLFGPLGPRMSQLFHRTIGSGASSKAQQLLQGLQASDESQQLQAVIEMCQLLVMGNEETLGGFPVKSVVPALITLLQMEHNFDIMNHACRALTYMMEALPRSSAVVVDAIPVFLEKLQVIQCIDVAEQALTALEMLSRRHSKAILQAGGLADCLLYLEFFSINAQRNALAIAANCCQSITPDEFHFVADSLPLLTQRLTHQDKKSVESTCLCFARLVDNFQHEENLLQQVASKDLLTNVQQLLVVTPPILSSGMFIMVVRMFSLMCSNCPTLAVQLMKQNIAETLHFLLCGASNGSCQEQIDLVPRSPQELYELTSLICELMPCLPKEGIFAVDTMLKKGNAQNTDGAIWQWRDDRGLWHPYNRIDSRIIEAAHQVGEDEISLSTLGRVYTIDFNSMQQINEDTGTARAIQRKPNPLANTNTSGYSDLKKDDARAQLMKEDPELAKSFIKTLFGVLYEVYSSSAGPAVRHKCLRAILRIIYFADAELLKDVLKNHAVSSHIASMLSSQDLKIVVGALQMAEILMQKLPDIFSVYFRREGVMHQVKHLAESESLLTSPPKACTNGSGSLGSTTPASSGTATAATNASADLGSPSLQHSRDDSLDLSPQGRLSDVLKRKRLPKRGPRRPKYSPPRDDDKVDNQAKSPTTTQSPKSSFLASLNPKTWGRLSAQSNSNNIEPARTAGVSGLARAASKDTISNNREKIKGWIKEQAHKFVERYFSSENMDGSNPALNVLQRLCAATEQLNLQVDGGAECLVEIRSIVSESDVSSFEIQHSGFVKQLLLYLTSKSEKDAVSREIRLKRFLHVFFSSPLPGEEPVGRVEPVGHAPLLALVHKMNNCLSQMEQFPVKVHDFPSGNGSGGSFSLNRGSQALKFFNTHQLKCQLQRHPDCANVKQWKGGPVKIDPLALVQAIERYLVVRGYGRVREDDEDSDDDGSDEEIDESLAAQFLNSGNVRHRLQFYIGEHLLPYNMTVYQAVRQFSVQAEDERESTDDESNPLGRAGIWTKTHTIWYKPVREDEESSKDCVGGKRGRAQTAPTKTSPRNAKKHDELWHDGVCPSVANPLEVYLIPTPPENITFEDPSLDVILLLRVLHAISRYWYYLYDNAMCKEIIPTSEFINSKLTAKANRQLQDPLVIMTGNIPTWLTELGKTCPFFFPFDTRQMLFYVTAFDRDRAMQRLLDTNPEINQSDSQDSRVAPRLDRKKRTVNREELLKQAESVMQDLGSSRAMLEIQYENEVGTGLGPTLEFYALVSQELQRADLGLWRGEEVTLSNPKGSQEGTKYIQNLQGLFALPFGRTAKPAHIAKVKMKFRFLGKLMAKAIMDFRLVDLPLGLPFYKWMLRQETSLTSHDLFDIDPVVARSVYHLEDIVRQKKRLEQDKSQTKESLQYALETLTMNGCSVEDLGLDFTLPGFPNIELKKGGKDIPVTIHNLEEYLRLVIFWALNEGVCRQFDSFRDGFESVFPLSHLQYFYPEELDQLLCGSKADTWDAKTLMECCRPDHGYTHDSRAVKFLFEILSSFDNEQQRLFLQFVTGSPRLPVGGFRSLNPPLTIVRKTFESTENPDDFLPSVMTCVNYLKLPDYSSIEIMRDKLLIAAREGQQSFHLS

No constants are given. Whether binding was seen depends on the method and setting. Binding seen in cells or lysates may run through a third protein. Some entries that bind do so weakly or less than the wild type.

Take “E3 ubiquitin ligase TRIP12 (from UniProt F1LP64 1-2025) (enzyme)”: the binding entry is “binds”.

These data come from publication PMC12743421.
